Our source for the binding values is article PMC6692618.

Amino acid sequences for entries named in this document (tags omitted).
UniProt P49407: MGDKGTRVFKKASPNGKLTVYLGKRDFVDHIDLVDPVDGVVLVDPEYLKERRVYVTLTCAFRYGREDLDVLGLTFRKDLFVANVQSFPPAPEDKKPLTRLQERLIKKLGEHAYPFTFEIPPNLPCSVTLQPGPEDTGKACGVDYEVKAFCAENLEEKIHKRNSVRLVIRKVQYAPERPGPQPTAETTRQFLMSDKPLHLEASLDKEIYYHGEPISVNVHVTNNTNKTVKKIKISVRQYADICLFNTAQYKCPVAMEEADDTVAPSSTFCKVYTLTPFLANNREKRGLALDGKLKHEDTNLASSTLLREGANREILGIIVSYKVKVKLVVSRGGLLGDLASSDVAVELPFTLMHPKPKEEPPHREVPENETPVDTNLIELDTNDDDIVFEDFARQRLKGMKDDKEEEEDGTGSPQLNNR
UniProt Q13535: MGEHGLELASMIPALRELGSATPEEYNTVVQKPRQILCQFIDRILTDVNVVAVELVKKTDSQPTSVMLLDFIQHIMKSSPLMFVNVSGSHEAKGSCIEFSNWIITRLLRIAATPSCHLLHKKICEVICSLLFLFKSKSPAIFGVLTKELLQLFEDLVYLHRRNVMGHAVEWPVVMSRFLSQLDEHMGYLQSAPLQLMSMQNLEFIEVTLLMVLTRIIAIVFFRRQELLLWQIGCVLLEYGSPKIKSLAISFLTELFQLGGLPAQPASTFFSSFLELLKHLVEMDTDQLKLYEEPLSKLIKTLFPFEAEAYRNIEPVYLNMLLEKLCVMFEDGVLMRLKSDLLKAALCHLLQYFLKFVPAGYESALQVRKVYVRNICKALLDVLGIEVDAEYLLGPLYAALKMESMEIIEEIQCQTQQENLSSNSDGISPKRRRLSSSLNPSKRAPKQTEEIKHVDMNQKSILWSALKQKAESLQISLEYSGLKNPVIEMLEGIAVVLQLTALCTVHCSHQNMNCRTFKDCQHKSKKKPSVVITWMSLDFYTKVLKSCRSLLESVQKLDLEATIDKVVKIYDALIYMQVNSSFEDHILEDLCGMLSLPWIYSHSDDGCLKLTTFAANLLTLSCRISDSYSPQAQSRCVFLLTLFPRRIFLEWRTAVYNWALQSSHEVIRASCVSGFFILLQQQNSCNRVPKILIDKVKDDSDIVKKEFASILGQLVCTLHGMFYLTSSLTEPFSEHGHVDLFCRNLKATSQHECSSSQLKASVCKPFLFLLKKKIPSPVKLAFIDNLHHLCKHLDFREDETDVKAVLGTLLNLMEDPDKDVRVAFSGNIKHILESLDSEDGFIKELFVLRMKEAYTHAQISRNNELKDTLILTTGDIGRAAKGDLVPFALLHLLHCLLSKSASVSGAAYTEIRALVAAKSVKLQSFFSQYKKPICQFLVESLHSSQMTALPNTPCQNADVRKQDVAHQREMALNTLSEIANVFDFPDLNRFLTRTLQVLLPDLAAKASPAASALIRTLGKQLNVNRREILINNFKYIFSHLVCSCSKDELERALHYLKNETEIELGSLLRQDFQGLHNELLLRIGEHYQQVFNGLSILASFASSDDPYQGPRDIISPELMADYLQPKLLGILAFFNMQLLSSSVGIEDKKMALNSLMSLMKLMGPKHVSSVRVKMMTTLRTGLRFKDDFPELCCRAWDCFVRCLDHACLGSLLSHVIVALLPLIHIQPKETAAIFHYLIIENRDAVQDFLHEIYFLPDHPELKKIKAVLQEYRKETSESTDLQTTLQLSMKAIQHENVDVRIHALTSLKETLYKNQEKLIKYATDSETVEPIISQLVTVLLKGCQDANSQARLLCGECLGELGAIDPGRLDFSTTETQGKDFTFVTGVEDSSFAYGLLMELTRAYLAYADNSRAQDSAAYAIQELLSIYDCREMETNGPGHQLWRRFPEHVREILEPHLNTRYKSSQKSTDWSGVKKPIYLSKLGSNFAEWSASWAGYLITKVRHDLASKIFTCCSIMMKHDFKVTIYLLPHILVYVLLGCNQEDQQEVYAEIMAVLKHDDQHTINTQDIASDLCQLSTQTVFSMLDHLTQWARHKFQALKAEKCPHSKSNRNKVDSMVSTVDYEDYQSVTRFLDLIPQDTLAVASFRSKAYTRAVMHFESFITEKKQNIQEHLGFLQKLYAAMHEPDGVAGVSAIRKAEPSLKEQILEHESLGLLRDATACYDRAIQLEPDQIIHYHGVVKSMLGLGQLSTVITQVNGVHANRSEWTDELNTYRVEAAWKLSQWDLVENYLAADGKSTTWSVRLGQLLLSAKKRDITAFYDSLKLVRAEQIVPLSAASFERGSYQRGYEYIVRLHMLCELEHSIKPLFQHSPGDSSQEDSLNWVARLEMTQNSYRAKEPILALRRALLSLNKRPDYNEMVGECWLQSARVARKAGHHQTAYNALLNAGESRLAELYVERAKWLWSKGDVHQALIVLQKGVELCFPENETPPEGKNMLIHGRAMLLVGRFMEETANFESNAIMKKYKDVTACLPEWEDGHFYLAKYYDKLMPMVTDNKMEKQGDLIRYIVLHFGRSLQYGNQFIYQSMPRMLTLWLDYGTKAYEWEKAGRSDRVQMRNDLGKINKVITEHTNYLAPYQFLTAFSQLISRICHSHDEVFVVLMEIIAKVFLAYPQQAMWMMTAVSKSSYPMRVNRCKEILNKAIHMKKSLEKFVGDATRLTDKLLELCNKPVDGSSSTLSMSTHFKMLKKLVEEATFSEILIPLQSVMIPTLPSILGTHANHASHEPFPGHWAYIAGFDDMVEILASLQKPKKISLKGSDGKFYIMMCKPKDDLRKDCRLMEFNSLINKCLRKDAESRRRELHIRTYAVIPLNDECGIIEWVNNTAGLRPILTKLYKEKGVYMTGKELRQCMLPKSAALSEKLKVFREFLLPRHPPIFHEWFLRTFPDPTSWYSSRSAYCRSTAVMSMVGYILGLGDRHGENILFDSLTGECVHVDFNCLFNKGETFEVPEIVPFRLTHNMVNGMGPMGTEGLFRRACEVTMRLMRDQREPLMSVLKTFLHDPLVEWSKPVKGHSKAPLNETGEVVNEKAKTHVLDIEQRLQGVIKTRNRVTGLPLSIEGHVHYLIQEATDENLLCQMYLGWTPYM

Results are given in words; binding and its absence hold for the method and conditions named. Binding seen in cells or lysates may run through a third protein. Some entries that bind do so weakly or less than the wild type.

The assay has as its target β-arrestin1 (human (endogenous in H520 and H1299)) (UniProt P49407). In words: co-IP; RIPA lysates of H520 and H1299 cells, with and without radiation; anti-β-arrestin1 antibody (Santa Crus) with protein A and G sepharose beads overnight; three washes; western blotting.

ATR (from UniProt Q13535 1-2644): the binding result is “binds”.
